19 molecules from publication PMC10163288 can be followed below.

B1: il10ra_site1_normal_mot_HHH_b2_06142_af2_000000101_0001_1_18_H_._89c65acb93c0dbf80477798e1fe8a9b1_0001_1_0001_0000800018_0000001_0_af2pred_dldesign_0_af2pred (protein)
chain: SPELRALFERLLADPHDYAARVALYRLLTELTGDPEKAAEILAELYRLLRAGKPEEARALLERVE
B2: il10ra_site1_sap_20_mot_HHH_b2_00984_000000042_0001_1_20_H_._HHH_b1_04990_af2_0002_0000200010_0000001_0_0001_af2pred_0001 (protein)
chain: SSSSSSEEEIEELIEEAKRIEDPEEASHVLLKAFALANEARDPELRKEVEEAAQEVMESISSSSS
B3: il10ra_site1_normal_mot_HHH_b1_05357_000000034_0001_23_39_H_._HHH_b2_01639_0001_0000100002_0000001_0 (protein)
chain: SSSSSSDSEEEVEELLEEAKQIEDRRRRSHVLIRAYAIAHQANDPELEELVRKVAIELSSSSSSS
B4: il10ra_site1_sap_23_mot_HHH_b1_08508_000000230_0001_42_56_H_._5ee4a038a4e38403a52b52cc808907e6_0001_1_0001_0000500032_0000001_1_0001_af2pred_0001 (protein)
chain: SSSSKEEELIELALKFLKFLVEQGDREAAKRLARAIEQLIKRLGDEELQEIVEELLRLAEERSSS
B5: il10ra_site1_normal_mot_HHH_b1_05056_000000217_0001_1_20_H_._HHH_b1_01607_0001_0000100005_0000001_0 (protein)
chain: SSSSDEYREEVERLLEEAEEAAERGDPRKAARLLQEATRLALEAQDPELLQLVWEVVQRIASSSS
B6: il10ra_site1_sap_14_mot_0528de937f51a16133d72caa21901941_0001_000000147_0001_1_14_H_._0528de937f51a16133d72caa21901941_0001_af2_0001_0000200007_0000001_0_0001 (protein)
chain: DLLEAALEAAEEAGDPEAARIIEEVIRLLERGEVSPEELREELEELIKETGNLFLWQALFALRRE
B7: il10ra_site1_normal_mot_513c16ae44941e68898e0f7c259e5a28_0001_1_000000056_0001_35_50_H_._HHH_b1_02780_0001_0000100011_0000001_0 (protein)
chain: SSSSSQEEELLKAVARFLEQALEYNDERRLRAMLYALEFLARELGDEEAKEVVEEVQELLESSSS
B8: il10ra_site1_normal_mot_HHH_b2_00984_000000042_0001_1_20_H_._HHH_b1_04649_0001_0000100005_0000001_1 (protein)
chain: SSSSSEEEEEVEKLLEEAKRIDNLEELARVLLEAVRIALEIGNQELLQEIWRLIKELIKEISSSS
B9: il10ra_site1_sap_30_mot_HHH_b1_01011_000000096_0001_1_19_H_._HHH_b1_05957_0001_0000600022_0000001_0_0001_af2pred_dldesign_0_af2pred (protein)
chain: SKLEEVKRVVEYQAEAAGVEEVKVEVKDGKVIVTLTGDSRACELVELAAEAAGETFGVEVEVIRE
B10: il10ra_site1_normal_mot_HHH_b1_06789_af2_000000041_0001_1_20_H_._HHH_b1_07672_0001_0000100005_0000002_0 (protein)
chain: SSSSSNTRWLAEQAFIALERAIELGDEERIEHILEILENLAEFANDPYARELVEEARELLSSSSS
B11: il10ra_site1_sap_21_mot_HHH_b2_03220_af2_000000223_0001_23_40_H_._HHH_b1_07627_af2_0001_0000100003_0000001_0_0001_af2pred_0001 (protein)
chain: SSSSNWREDVESALRAAELAFERGDEEKAERILELARRLAELANDEELERLVEEVEKRLNSSSSS
B12: il10ra_site1_sap_15_mot_HHH_b2_02736_000000092_0001_22_38_H_._d0e5aa17b8994cf95a3b92f728436530_0001_0001_0000100001_0000002_0_0001 (protein)
chain: SSSSDEAQEEALKLSIEAFRLALRGNPEEARELLEEALKLAEEGGDERLVEMIEQLLETLSSSSS
B13: il10ra_site1_normal_mot_HHH_b1_07743_af2_000000164_0001_42_55_H_._HHH_b1_02184_0001_0000100001_0000001_0 (protein)
chain: SSSSDEREELARRVAELLVEASRIEDEEKVEELLREARELAEKLNNDILRAQVESLERLLSSSSS
B14: il10ra_site1_normal_mot_HHH_b1_07380_000000129_0001_1_20_H_._HHH_b1_07761_0001_0000800041_0000001_0 (protein)
chain: SSSSDEEDHELYRLSRRAAELLAEGNPEEAEELLREAEELAERNNNRVLLFTIRFLLRQVTSSSS
B15: il10ra_site1_normal_mot_a6c796b944619e241e020fd597ddb6da_0001_af2_000000092_0001_15_31_H_._HHH_b2_01778_af2_0001_0000100002_0000002_0_af2pred_0001 (protein)
chain: SSSSSSSEEEQEVHALIFFARISDNEDAAKISLELAKKIAEEINNEELREEIEELEKELSSSSSS
B16: il10ra_site1_normal_mot_HHH_b2_02537_000000065_0001_1_20_H_._HHH_b1_07925_0001_0000100001_0000001_0 (protein)
chain: SSSSTDEVFEFTRRVIEEASELFRNGNPEEAERVLEEAREYLEELGDELALRSVEHLLRAISSSS
B17: il10ra_site1_normal_mot_HHH_b2_02693_af2_000000213_0001_19_35_H_._HHH_b2_04018_af2_0001_0000100002_0000002_0 (protein)
chain: SSSSDEVERIVEELLEEAKELEERGNPEEALRALARAAARASRNNNKELLEKVQQAQIELLSSSS
B18: il10ra_site1_normal_mot_HHH_b2_03038_000000109_0001_1_20_H_._HHH_b2_08018_0001_0000300011_0000002_0_af2pred_0001 (protein)
chain: SSSSSDKEELEELIRQLEEALEEGNLRLLIELARELNKLAVELNDPEALEVVHRVTEAFSSSSSS
B19: il10ra_site1_sap_23_mot_HHH_b2_04499_af2_000000256_0001_42_56_H_._HHH_b1_06919_af2_0001_0000900022_0000001_0_0001 (protein)
chain: SSSSDEEVEELIKEAQELLERGDPREAARVLQRAVRLALEAGDPELLQEIWELVREIAERGSSSS

The other results are listed elsewhere or left out.

This assay deals with il10ra, Q13651. As to the kind of experiment: yeast display titration.
A word on the apparent Kd: it is the concentration giving half-maximal binding under the conditions of the assay. On to B1, for which the “apparent Kd” value was “inactive: no binding seen”.
Turning to B2, the “apparent Kd” value is “inactive: no binding seen”.
As to B3, the “apparent Kd” value is “inactive: no binding seen”.
On to B4, for which the “apparent Kd” value is “inactive: no binding seen”.
In the case of B5, the “apparent Kd” value was “inactive: no binding seen”.
B6: the “apparent Kd” value is “inactive: no binding seen”.
Consider B7, for which the apparent Kd was inactive: > 1440 nM.
The result for B8 reads “inactive: no binding seen”.
On to B9, for which the “apparent Kd” value is “inactive: no binding seen”.
The result for B10 reads “inactive: no binding seen”; that for B11, “inactive: no binding seen”; that for B12, “inactive: no binding seen”.
As for B13, the “apparent Kd” value is “inactive: no binding seen”.
Consider B14, for which the “apparent Kd” value is “inactive: no binding seen”.
In the case of B15, the “apparent Kd” value was “inactive: no binding seen”.
As for B16, the “apparent Kd” value is “inactive: no binding seen”.
Consider B17, for which the “apparent Kd” value is “inactive: no binding seen”.
Consider B18, for which the “apparent Kd” value is “inactive: no binding seen”.
With B19, the “apparent Kd” value is “inactive: no binding seen”.
